Data: article doi:10.1101/2021.11.02.467017

Sequences of proteins named here, by UniProt entry; tags and fusion partners are left off.
UniProt Q8R3B7: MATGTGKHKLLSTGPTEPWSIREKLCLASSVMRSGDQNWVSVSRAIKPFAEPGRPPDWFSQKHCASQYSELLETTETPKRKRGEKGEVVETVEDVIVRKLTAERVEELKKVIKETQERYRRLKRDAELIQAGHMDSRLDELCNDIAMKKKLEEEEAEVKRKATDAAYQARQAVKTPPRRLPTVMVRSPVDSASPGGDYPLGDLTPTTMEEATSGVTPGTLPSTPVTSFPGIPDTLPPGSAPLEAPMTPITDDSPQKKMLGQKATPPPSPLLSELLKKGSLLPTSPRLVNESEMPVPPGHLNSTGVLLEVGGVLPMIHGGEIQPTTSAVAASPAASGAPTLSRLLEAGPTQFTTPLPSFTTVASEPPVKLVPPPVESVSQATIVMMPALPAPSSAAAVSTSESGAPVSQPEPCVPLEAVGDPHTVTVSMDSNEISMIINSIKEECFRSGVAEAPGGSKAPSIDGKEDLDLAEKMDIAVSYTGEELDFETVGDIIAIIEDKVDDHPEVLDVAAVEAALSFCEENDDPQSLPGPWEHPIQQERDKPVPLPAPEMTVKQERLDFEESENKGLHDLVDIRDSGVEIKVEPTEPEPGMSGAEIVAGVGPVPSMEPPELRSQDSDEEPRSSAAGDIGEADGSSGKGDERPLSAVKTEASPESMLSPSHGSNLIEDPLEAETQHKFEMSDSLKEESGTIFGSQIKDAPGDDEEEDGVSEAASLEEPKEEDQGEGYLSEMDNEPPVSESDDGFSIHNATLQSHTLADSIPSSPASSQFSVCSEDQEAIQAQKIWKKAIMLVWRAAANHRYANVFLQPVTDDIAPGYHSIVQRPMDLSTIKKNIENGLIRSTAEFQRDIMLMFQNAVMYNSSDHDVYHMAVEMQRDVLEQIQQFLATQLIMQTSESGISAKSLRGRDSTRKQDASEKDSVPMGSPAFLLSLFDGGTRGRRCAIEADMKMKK
UniProt Q9JI44: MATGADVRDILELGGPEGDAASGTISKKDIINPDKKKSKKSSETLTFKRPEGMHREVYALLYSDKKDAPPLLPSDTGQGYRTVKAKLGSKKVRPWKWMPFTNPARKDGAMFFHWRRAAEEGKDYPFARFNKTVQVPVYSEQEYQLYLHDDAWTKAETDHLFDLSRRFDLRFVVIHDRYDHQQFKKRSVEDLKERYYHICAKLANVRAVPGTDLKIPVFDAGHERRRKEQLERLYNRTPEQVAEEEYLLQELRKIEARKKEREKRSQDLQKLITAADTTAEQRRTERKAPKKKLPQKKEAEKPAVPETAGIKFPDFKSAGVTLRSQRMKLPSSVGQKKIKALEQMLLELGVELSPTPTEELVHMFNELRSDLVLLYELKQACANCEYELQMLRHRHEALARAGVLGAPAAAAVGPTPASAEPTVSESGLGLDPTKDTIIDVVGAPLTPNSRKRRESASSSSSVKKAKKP
UniProt Q8C9X6: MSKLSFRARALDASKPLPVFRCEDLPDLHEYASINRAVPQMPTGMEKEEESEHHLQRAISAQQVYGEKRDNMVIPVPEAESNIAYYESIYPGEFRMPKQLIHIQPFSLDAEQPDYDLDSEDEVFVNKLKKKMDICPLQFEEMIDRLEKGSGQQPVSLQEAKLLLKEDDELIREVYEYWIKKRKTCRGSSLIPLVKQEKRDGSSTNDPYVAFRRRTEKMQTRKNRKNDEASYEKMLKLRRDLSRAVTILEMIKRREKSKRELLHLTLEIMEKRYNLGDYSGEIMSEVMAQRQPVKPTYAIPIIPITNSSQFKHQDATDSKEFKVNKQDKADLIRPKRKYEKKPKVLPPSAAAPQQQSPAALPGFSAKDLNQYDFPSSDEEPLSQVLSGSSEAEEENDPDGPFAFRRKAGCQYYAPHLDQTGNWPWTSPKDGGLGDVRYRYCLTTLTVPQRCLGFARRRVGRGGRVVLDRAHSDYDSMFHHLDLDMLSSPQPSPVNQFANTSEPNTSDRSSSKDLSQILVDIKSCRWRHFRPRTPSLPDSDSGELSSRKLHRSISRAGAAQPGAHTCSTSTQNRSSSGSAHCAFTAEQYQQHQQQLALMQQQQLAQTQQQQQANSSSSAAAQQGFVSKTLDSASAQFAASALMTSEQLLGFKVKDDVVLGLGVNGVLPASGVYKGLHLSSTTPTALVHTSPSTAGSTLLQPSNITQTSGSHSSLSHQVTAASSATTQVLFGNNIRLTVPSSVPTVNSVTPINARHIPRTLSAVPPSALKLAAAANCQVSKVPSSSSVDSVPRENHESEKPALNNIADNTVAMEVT
UniProt Q8C0I4: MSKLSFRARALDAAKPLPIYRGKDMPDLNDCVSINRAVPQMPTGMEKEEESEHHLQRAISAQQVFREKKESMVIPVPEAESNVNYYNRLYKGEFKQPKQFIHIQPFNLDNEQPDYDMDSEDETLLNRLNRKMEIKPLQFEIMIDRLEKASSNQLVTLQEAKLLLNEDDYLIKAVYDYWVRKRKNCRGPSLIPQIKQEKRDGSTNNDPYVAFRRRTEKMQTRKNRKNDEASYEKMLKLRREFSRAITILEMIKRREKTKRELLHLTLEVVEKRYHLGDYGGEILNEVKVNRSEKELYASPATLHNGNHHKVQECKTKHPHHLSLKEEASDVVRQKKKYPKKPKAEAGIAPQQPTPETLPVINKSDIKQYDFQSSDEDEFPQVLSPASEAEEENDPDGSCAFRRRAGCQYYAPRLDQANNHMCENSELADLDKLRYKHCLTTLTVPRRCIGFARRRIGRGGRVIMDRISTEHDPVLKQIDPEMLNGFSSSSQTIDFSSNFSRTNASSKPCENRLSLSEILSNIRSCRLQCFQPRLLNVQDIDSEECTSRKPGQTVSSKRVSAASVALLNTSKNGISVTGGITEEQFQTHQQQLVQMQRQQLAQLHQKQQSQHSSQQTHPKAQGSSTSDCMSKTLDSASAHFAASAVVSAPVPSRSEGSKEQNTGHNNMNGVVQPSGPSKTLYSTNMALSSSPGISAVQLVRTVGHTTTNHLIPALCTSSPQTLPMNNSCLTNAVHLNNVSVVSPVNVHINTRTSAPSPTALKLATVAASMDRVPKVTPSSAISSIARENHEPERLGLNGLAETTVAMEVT
UniProt O35144: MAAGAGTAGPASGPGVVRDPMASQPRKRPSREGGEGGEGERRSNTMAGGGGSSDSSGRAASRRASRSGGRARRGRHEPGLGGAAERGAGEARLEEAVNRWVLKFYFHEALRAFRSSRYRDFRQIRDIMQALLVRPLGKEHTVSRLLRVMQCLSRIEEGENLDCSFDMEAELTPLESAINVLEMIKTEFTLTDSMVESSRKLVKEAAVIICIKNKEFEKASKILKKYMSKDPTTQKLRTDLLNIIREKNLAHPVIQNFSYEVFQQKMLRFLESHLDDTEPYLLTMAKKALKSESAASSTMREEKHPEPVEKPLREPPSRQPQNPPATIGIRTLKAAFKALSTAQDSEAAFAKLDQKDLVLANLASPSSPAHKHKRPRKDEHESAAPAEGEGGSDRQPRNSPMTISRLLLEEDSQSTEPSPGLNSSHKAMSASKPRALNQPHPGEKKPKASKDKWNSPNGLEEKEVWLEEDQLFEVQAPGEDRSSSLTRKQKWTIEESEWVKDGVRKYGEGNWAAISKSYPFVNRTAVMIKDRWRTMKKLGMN

B1: TIN2 (protein, UniProt Q9QXG9 1-341)
chain: MAPPPGVGPASLRFAAAASWLVVRRRRVEHFPKVVEFLQSLRAAAPGLVCYRHHERLCMSLKAKVVVELILQARPWDQVLNALKHHFPAESRTTKEDRKLLEARENFCLLVKHLSEDPPSSLQELEQDYGESFLVAMEKLLFEYLCQLEKALPPVRAQELQDALSWSQPGSFITSSVALHQYGMDMGWTFPESSTSGSGNLIEPMEESPHQQTRPAFHSPLPKAKLGPHQPASLEHPEHLAGHRFNLAPLGKRKSRSHWTSAKACHKERPTVMLLPFRNMGLPAQDLSNPKSREEPGAASAASVGTEPVCTEEAKTPSRPLGKRALEETPPDSPAASRRTV

What was measured:
Experiment in all cases: proximity labelling
[1] = target: T1, BioID-Rap1-I312R (mouse) (UniProt Q91VL8)
T1 sequence: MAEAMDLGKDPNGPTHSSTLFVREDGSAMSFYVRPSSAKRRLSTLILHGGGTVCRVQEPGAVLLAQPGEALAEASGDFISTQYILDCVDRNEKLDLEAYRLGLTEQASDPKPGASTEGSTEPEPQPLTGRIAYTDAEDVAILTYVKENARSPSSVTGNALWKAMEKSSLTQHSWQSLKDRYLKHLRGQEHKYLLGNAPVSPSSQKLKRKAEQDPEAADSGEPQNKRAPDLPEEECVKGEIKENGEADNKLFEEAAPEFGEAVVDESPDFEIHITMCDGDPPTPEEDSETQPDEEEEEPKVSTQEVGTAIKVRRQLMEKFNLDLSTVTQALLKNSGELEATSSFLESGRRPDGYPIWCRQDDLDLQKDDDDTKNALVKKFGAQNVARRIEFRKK

[2] = target: BioID-Rap1-WT (mouse) (UniProt Q91VL8)
[3] = target: BioID-Rap1-WT (mouse) (UniProt Q91VL8); remark: listed apart in the source
[4] = target: T1, BioID-Rap1-I312R (mouse); remark: listed apart in the source

Molecule | binding [1] | binding [2] | binding [3] | binding [4]
BRD8 (from UniProt Q8R3B7 1-951) | binds |  |  | 
DMAP1 (from UniProt Q9JI44 1-468) | binds |  |  | 
EPC1 (from UniProt Q8C9X6 1-813) | binds |  |  | 
EPC2 (from UniProt Q8C0I4 1-808) | binds |  |  | 
TRF2 (from UniProt O35144 1-541) | no binding | binds | binds | no binding
p400 (from UniProt Q8CHI8 1-3072) | binds |  |  | 
B1 | no binding | binds |  | 

Like-named read-outs stand apart in the source and are kept apart here. No constants are given. Whether binding was seen depends on the method and setting. Binding seen in cells or lysates may run through a third protein. A yes stands for co-enrichment or nearness to the bait. Other partners may have been found. For some assays here: A no says only that the protein was not detected with the bait.
